Tested on: Caco-2 monolayers
Settings: human, Caco-2, 250 μM
Method: The membrane permeability was investigated in Caco-2 monolayers. DMF was investigated in a separate experiment for comparison.
Based on the assumption that in vivo, the intact molecules will be pre-systemically metabolized, the permeability test was performed only in the apical→basolateral direction. The test concentration in the apical medium was 250 μM. […] Sampling time points were 15, 45 and 90 min.

SMILES: CC(C)NCC(O)COc1ccc(CC(N)=O)cc1 (stereo not shown) [Atenolol, atenolol]
- Papp × 10^−6 [cm/sec] mean ± s.d.: 0.3 ± 0.1 10^−6 cm/sec
